Source: paper PMC4471197
No constants are given. Whether binding was seen depends on the method and setting. For part of these data: Binding seen in cells or lysates may run through a third protein. Some binding calls cover weakened binding; strength is not graded here.

Sequences of proteins named here, by UniProt entry; tags and fusion partners are left off.
UniProt O00629: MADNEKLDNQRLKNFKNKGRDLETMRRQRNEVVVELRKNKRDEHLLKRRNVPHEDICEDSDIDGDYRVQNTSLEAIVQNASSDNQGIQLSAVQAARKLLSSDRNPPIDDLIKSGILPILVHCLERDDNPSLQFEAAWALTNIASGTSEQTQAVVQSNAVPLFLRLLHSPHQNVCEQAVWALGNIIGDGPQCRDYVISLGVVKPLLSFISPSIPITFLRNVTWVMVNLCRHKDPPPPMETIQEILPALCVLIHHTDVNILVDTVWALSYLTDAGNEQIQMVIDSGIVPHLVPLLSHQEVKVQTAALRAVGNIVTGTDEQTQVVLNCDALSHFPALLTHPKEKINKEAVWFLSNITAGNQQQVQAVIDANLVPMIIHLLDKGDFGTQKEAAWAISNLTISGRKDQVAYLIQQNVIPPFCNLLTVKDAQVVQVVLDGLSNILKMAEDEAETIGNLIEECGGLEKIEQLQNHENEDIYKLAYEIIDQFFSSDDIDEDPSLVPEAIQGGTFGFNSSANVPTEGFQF
UniProt O15131: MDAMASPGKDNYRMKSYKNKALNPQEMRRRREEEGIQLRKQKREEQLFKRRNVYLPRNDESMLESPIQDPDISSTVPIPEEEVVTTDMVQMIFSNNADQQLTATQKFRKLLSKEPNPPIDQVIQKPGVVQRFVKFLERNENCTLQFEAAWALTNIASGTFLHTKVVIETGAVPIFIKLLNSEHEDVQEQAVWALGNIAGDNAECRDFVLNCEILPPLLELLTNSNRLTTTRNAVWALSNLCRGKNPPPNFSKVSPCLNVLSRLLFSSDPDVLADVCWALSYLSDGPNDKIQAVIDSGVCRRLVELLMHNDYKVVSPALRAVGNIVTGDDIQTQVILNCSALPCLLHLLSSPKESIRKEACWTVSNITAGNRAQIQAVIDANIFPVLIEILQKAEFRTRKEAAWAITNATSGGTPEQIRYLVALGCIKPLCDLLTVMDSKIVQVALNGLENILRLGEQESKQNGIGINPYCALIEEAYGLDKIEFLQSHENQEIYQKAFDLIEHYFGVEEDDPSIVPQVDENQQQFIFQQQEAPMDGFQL
UniProt P10218: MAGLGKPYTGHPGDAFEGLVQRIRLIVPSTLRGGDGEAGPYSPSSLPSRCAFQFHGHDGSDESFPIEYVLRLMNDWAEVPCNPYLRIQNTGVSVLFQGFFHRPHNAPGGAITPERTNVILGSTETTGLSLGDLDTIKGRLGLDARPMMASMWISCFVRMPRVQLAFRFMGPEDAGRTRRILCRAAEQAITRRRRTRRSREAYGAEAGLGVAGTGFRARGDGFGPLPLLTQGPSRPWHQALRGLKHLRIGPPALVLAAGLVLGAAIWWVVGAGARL
UniProt P10215: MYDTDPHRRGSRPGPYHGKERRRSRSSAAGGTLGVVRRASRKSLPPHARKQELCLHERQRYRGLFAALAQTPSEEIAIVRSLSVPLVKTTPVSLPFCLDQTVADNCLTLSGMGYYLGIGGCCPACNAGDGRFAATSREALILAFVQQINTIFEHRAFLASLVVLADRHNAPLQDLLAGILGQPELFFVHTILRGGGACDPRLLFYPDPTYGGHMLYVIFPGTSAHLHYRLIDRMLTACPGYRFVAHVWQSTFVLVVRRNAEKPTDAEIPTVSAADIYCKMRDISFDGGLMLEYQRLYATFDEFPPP

Assays:
[1] = target: importin α KPNA4 (LUMIER construct) (UniProt O00629); test: LUMIER assay; LUMIER assay as described previously (refs 59, 60); format not told here
[2] = target: importin α KPNA5 (LUMIER construct) (UniProt O15131); test: as above
[3] = target: HSV-1 pUL34 (yeast two-hybrid construct) (Herpes simplex virus type 1 (HSV-1), strain 17+) (UniProt P10218); test: two-hybrid; yeast two-hybrid, HIS3 reporter gene activation; bait and prey not told
[4] = target: importin α KPNA4 (yeast two-hybrid construct) (UniProt O00629); test: as above
[5] = target: importin α KPNA5 (yeast two-hybrid construct) (UniProt O15131); test: as above
[6] = target: MBP-pUL34 (Herpes simplex virus type 1 (HSV-1), strain 17+) (UniProt P10218); test: pull-down; co-affinity purification on Amylose resin from lysates of HeLa cells co-transfected with MBP-pUL34 and myc-pUL31 or myc-pUL31ΔN, 24 hpt; lysis buffer 20 mM Tris-HCl pH8, 150 mM NaCl, 10% glycerol, 0.5% Triton X-100, 2 mM EDTA; 1 hour at 4°C; Western blot with anti-MBP and anti-myc

“HSV-1 pUL31 (LUMIER construct) (from UniProt P10215 1-306)” was tested, and the binding [1] was “binds” and the binding [2] was “binds”.

With “HSV-1 pUL31 (yeast two-hybrid construct) (from UniProt P10215 1-306)” the binding [3] was “binds”, the binding [4] was “binds” and the binding [5] was “binds”.

With myc-pUL31 (from UniProt P10215 1-306) the binding [6] was “binds”.
